The assay has as its system P388 leukemia ip, CD2F1 mice, survival T/C. Put plainly: NCI In Vivo Anticancer Drug Screen. Data for tumor model P388 Leukemia (intraperitoneal) in CD2F1 (CDF1) mice. Conditions: T/C endpoint: median survival time, higher T/C = longer survival.
[1] abbreviates: dose: 200.0 mg/kg/injection, schedule: Q01DX005 (ip), vehicle: Klucel (hydroxypropylcellulose) (HPC).
[2] abbreviates: dose: 400.0 mg/kg/injection, schedule: Q01DX005 (ip), vehicle: saline with Tween-80.
[3] abbreviates: dose: 200.0 mg/kg/injection, schedule: Q01DX005 (ip), vehicle: saline with Tween-80.

The list is a part of this screen's results and no random one: it gathers tests that were run many times, whatever their T/C, doses with no T/C, and many T/C values between a quarter and a half above the control. Other doses and runs of a compound stand elsewhere. T/C: endpoint of the treated group in % of that of the vehicle group. Some entries give survivors of the animals treated and no T/C: the source holds a T/C of zero for them, seemingly a mark for toxic or unscored doses. Some doses without a T/C left all or most animals alive at the check, yet need not have been tolerated: survival well below the control is almost never listed, so the zero probably covers shortened survival too. Counts of survivors are from the toxicity check (mostly the fifth day) where no day follows; animals may have died later. Schedule codes are those of the source, taken here to give the interval after Q, in days (D) or hours (H), and the number of doses after X. Some entries were tested several times; the results are listed from low to high. Counts like (3×) say how often a value occurs here. Where survival is the endpoint, the PubChem record calls one and a half times the control and up active, and a quarter to a half above the control has no call in these data; cut-offs in other NCI protocols can differ. Some T/C values carry the count of animals alive at the toxicity check (mostly the fifth day); where none is given, no animal had died by that day.

`Cc1c(C)n(-c2ccccc2)c2nc(C)n(-c3ccccc3Cl)c(=N)c12`: the survivor count under setting [1] is 0 of 6.
Same read-out and setting: the same measure for `COc1cc(C(O)(CCN2CCOCC2)c2ccc3c(c2)OCO3)cc(OC)c1OC` (centres undefined): 6 of 6.
With `Cc1cccc2c(OCC3CO3)cc(=O)[nH]c12` (centres undefined), the T/C reads like this: (dose: 100.0 mg/kg/injection, schedule: Q01DX005 (ip), vehicle: saline with Tween-80, evaluated on day 24) 133 % of control; (dose: 100.0 mg/kg/injection, schedule: Q01DX005 (ip), vehicle: saline with Tween-80, evaluated on day 30) 130 % of control; (dose: 200.0 mg/kg/injection, schedule: Q01DX005 (ip), vehicle: saline with Tween-80, evaluated on day 24) 130 % of control [4 of 6 alive]; (dose: 200.0 mg/kg/injection, schedule: Q01DX005 (ip), vehicle: saline with Tween-80, evaluated on day 30) 133 % of control. In addition, the survivor count under setting [2] is 2 of 6.
Consider `O=C(O)c1cccnc1C(=O)O`, for which the survivor count by setting is: (dose: 400.0 mg/kg/injection, schedule: Q01DX009 (ip), vehicle: saline) 3 of 6; (dose: 600.0 mg/kg/injection, schedule: Q01DX009 (ip), vehicle: saline) 3 of 6 and 5 of 6.
Consider `COC1=C(O)C(=O)N(C)C(=O)C1`, for which the survivor count (dose: 7.5 mg/kg/injection, schedule: Q01DX005 (ip), vehicle: Klucel (hydroxypropylcellulose) (HPC)) is 0 of 6; the survivor count (dose: 15.0 mg/kg/injection, schedule: Q01DX005 (ip), vehicle: Klucel (hydroxypropylcellulose) (HPC)) was 0 of 6; the survivor count (dose: 60.0 mg/kg/injection, schedule: Q01DX005 (ip), vehicle: Klucel (hydroxypropylcellulose) (HPC)) is on record as 0 of 6; the survivor count (dose: 120.0 mg/kg/injection, schedule: Q01DX005 (ip), vehicle: Klucel (hydroxypropylcellulose) (HPC)) is 0 of 6; the survivor count (dose: 240.0 mg/kg/injection, schedule: Q01DX005 (ip), vehicle: Klucel (hydroxypropylcellulose) (HPC)) is 0 of 6.
On to `Cc1c(COC(=O)NC(C)C)c(COC(=O)NC(C)C)c2c3ccccc3c3ccccc3n12`, for which, for the setting “dose: 6.25 mg/kg/injection, schedule: Q01DX009 (ip), vehicle: distilled water + Tween-80”, the T/C is 144 % of control.
`CN(C)/N=N/c1nc[nH]c1C(N)=O`: the T/C by setting is: (dose: 25.0 mg/kg/injection, schedule: Q01DX009 (ip), vehicle: distilled water + Tween-80, evaluated on day 20) 113 % of control; (dose: 25.0 mg/kg/injection, schedule: Q01DX009 (ip), vehicle: distilled water + Tween-80, evaluated on day 30) 102, 110, 111, 112, 113 (2×), 116 (2×), 116 [5 of 6 alive], 124, 127 % of control; (dose: 25.0 mg/kg/injection, schedule: Q01DX009 (ip), vehicle: saline with Tween-80) 129 % of control; (dose: 37.5 mg/kg/injection, schedule: Q01DX005 (ip), vehicle: distilled water + Tween-80) 130 % of control; (dose: 50.0 mg/kg/injection, schedule: Q01DX009 (ip), vehicle: distilled water + Tween-80, evaluated on day 20) 109 % of control; (dose: 50.0 mg/kg/injection, schedule: Q01DX009 (ip), vehicle: distilled water + Tween-80, evaluated on day 30) 116 (3×), 117, 124, 125, 129, 133, 138, 150, 153 % of control. Besides, the T/C runs as follows: (dose: 75.0 mg/kg/injection, schedule: Q01DX005 (ip), vehicle: distilled water + Tween-80) 140 % of control; (dose: 100.0 mg/kg/injection, schedule: Q01DX005 (ip), vehicle: saline with Tween-80) 130 % of control; (dose: 100.0 mg/kg/injection, schedule: Q01DX009 (ip), vehicle: distilled water + Tween-80, evaluated on day 20) 134 % of control; (dose: 100.0 mg/kg/injection, schedule: Q01DX009 (ip), vehicle: distilled water + Tween-80, evaluated on day 30) 106, 133, 135, 145, 146 (2×), 150, 161, 162, 163, 190 % of control; (dose: 100.0 mg/kg/injection, schedule: Q01DX009 (ip), vehicle: saline with Tween-80) 126 % of control; under setting [3], 142 % of control (2×). For the same compound, the T/C was 137 % of control (dose: 200.0 mg/kg/injection, schedule: Q01DX009 (ip), vehicle: distilled water + Tween-80, evaluated on day 20); 116, 117, 118, 124, 125, 138, 141, 148 [5 of 6 alive], 153, 168, 187 % of control (dose: 200.0 mg/kg/injection, schedule: Q01DX009 (ip), vehicle: distilled water + Tween-80, evaluated on day 30); 135 % of control (dose: 200.0 mg/kg/injection, schedule: Q01DX009 (ip), vehicle: saline with Tween-80); 125 % of control (dose: 400.0 mg/kg/injection, schedule: Q01DX005 (ip), vehicle: Klucel (hydroxypropylcellulose) (HPC)); 189 % of control (dose: 400.0 mg/kg/injection, schedule: Q01DX009 (ip), vehicle: distilled water + Tween-80, evaluated on day 20); 97 % of control [5 of 6 alive] (dose: 400.0 mg/kg/injection, schedule: Q01DX009 (ip), vehicle: distilled water + Tween-80, evaluated on day 30). In addition, the survivor count runs as follows: under setting [2], 6 of 6; (dose: 400.0 mg/kg/injection, schedule: Q01DX009 (ip), vehicle: distilled water + Tween-80) 4 of 6 (2×), 5 of 6, 6 of 6 (2×); (dose: 400.0 mg/kg/injection, schedule: Q01DX009 (ip), vehicle: saline with Tween-80) 0 of 6.
For the compound `O=C(O[Si](Cc1ccccc1)(Cc1ccccc1)Cc1ccccc1)N(CCCl)CCCl`, under “dose: 12.5 mg/kg/injection, schedule: Q04DX003 (ip), vehicle: saline”, the T/C is 134 % of control.
As for `O=C1C(Cl)=C(Cl)C(=O)C(/C=C/N2CCOCC2)=C1Cl`, the survivor count runs as follows: (dose: 200.0 mg/kg/injection, schedule: Q01DX001 (ip), vehicle: saline with Tween-80) 0 of 6; (dose: 400.0 mg/kg/injection, schedule: Q01DX001 (ip), vehicle: saline with Tween-80) 0 of 6.
Take `CC(C)(C)NC(=O)N1C2C3CCC(C)(OC3(C)C)C21` (centres undefined): the survivor count under setting [3] is on record as 0 of 6.
As for `Cc1ccc(S(=O)(=O)c2cc3ccccc3oc2=O)cc1`, the survivor count (dose: 240.0 mg/kg/injection, schedule: Q01DX005 (ip), vehicle: saline with Tween-80) is given as 6 of 6.
For `Cc1ccc(C)c(C(=O)CCN(C)C)c1`, the survivor count (dose: 120.0 mg/kg/injection, schedule: Q01DX005 (ip), vehicle: saline) was 0 of 6 and the survivor count (dose: 240.0 mg/kg/injection, schedule: Q01DX005 (ip), vehicle: saline) is recorded as 0 of 6.
Turning to `N=C(N)c1ccc(/C=C/c2cc3cc(C(=N)N)ccc3[nH]2)cc1`, the survivor count is, setting by setting: (dose: 100.0 mg/kg/injection, schedule: Q04DX003 (ip), vehicle: saline) 0 of 6; (dose: 200.0 mg/kg/injection, schedule: Q04DX003 (ip), vehicle: saline) 0 of 6; (dose: 400.0 mg/kg/injection, schedule: Q04DX003 (ip), vehicle: saline) 0 of 6.
On to `CC(C)CCC1=CC(=O)c2c(O)ccc(O)c2C1=O`, for which the survivor count is 3 of 6 (dose: 87.5 mg/kg/injection, schedule: Q04DX002 (ip), vehicle: DMSO); 0 of 6 (dose: 175.0 mg/kg/injection, schedule: Q04DX002 (ip), vehicle: DMSO); 0 of 6 (dose: 350.0 mg/kg/injection, schedule: Q04DX002 (ip), vehicle: DMSO).
As for `COc1ccc(C=C2C(=O)C=CC2=O)cc1OC`, the survivor count was 0 of 6 (dose: 25.0 mg/kg/injection, schedule: Q04DX002 (ip), vehicle: saline with Tween-80); 0 of 6 (dose: 50.0 mg/kg/injection, schedule: Q04DX002 (ip), vehicle: saline with Tween-80); 0 of 6 (dose: 100.0 mg/kg/injection, schedule: Q04DX002 (ip), vehicle: saline with Tween-80).
Consider `Cc1[nH]c(C)c2ccc(=O)ccc12`, for which the survivor count (dose: 120.0 mg/kg/injection, schedule: Q01DX005 (ip), vehicle: suspension in saline) is 6 of 6.
As for `C=C1C(=O)OC2CC3=CCC(OC3=O)/C(C)=C\CC12` (centres undefined), the survivor count (dose: 172.0 mg/kg/injection, schedule: Q01DX005 (ip), vehicle: Klucel (hydroxypropylcellulose) (HPC)) was 1 of 6.
